Among the data in PMC3549499 are binding values, retold here.

Chains of the proteins cited; added tags and fusions are not shown.
UniProt Q80U72: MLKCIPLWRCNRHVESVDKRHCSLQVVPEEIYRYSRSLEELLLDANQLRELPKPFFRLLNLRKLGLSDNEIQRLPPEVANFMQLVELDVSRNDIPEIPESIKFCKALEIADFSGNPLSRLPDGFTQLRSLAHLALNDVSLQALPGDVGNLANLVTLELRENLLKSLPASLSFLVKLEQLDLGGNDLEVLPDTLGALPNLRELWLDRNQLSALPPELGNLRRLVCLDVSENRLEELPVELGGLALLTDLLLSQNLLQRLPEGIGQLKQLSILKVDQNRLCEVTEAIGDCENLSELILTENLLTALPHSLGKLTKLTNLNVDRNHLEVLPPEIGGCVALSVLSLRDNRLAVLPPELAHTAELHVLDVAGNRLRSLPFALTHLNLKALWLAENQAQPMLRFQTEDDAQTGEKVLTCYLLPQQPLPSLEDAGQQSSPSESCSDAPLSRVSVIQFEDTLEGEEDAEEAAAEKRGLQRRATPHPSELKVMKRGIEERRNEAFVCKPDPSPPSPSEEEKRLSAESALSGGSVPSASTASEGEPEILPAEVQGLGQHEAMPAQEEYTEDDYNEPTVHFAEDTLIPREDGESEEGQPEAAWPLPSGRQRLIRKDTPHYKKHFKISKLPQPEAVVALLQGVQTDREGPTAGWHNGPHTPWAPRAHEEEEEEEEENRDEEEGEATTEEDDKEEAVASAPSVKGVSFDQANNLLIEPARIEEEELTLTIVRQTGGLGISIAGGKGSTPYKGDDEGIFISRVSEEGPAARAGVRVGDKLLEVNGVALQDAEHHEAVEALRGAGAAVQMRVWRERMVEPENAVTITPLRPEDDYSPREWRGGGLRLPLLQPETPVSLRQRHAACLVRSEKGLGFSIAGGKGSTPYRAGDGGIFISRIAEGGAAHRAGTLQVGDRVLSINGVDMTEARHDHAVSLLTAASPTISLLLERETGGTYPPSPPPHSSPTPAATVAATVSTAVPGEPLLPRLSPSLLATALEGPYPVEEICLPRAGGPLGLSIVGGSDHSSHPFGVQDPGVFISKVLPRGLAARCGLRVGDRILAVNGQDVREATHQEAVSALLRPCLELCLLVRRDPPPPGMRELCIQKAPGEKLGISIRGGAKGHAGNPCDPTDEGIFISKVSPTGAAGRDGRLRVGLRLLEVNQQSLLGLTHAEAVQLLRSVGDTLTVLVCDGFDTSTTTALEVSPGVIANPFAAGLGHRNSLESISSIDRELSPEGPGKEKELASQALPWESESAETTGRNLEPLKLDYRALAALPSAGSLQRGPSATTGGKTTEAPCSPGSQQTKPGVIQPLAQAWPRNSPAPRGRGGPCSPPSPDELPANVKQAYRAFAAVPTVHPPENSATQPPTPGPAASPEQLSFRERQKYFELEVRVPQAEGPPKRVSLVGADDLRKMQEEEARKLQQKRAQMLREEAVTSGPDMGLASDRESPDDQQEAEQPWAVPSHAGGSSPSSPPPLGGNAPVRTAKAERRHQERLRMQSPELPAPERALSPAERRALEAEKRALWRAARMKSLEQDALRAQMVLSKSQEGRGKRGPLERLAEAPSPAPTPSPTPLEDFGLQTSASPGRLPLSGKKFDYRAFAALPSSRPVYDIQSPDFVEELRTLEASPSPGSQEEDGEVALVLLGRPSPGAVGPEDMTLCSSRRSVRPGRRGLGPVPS

Results are given in words; binding and its absence hold for the method and conditions named. Binding seen in cells or lysates may run through a third protein.

Assay [1] deals with T1, ZO-2 (mouse (endogenous in embryonic lung)) (UniProt Q9Z0U1).
T1 sequence: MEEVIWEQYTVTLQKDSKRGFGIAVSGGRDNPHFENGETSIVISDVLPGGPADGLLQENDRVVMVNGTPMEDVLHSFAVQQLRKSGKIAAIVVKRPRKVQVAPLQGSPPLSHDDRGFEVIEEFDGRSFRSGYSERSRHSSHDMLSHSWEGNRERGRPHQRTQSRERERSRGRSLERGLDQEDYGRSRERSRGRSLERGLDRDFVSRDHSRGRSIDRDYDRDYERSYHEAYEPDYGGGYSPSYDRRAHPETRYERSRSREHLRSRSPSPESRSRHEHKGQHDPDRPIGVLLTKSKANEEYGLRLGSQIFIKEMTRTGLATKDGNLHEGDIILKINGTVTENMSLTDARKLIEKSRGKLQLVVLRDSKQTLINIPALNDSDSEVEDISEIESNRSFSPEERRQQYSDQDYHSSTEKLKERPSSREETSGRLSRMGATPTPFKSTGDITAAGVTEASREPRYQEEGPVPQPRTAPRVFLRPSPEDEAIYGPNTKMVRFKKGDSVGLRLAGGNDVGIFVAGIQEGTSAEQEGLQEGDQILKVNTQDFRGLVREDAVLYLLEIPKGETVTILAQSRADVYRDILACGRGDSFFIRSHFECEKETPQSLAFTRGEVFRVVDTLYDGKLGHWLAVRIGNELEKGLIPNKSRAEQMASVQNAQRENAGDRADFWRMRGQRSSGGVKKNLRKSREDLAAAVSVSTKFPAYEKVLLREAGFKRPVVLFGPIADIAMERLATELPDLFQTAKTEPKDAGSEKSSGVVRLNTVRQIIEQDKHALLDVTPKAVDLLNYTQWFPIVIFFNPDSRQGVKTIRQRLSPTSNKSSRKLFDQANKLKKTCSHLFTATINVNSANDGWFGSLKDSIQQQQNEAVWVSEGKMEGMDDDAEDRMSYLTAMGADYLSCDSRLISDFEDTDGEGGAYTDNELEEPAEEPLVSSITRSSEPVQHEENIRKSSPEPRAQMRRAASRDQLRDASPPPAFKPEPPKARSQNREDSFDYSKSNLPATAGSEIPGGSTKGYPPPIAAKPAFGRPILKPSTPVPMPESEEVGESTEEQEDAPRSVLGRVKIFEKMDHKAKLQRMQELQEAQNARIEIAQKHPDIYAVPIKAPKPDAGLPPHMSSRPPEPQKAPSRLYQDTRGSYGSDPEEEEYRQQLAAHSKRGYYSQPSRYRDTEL
The assay can be described thus: co-IP; separate immunoprecipitations with antibodies to ZO-2 or to Scrib from E13.5/14.5 mouse lung lysates; no figure shown.

Assay [2] addresses Scribble (mouse (endogenous in embryonic lung)) (UniProt Q80U72). Described as above.

On to Scribble (from UniProt Q80U72 1-1665), for which the binding result in assay [1] was “no binding”.

B1: ZO-2 (protein, UniProt Q9Z0U1 1-1167)
chain: MEEVIWEQYTVTLQKDSKRGFGIAVSGGRDNPHFENGETSIVISDVLPGGPADGLLQENDRVVMVNGTPMEDVLHSFAVQQLRKSGKIAAIVVKRPRKVQVAPLQGSPPLSHDDRGFEVIEEFDGRSFRSGYSERSRHSSHDMLSHSWEGNRERGRPHQRTQSRERERSRGRSLERGLDQEDYGRSRERSRGRSLERGLDRDFVSRDHSRGRSIDRDYDRDYERSYHEAYEPDYGGGYSPSYDRRAHPETRYERSRSREHLRSRSPSPESRSRHEHKGQHDPDRPIGVLLTKSKANEEYGLRLGSQIFIKEMTRTGLATKDGNLHEGDIILKINGTVTENMSLTDARKLIEKSRGKLQLVVLRDSKQTLINIPALNDSDSEVEDISEIESNRSFSPEERRQQYSDQDYHSSTEKLKERPSSREETSGRLSRMGATPTPFKSTGDITAAGVTEASREPRYQEEGPVPQPRTAPRVFLRPSPEDEAIYGPNTKMVRFKKGDSVGLRLAGGNDVGIFVAGIQEGTSAEQEGLQEGDQILKVNTQDFRGLVREDAVLYLLEIPKGETVTILAQSRADVYRDILACGRGDSFFIRSHFECEKETPQSLAFTRGEVFRVVDTLYDGKLGHWLAVRIGNELEKGLIPNKSRAEQMASVQNAQRENAGDRADFWRMRGQRSSGGVKKNLRKSREDLAAAVSVSTKFPAYEKVLLREAGFKRPVVLFGPIADIAMERLATELPDLFQTAKTEPKDAGSEKSSGVVRLNTVRQIIEQDKHALLDVTPKAVDLLNYTQWFPIVIFFNPDSRQGVKTIRQRLSPTSNKSSRKLFDQANKLKKTCSHLFTATINVNSANDGWFGSLKDSIQQQQNEAVWVSEGKMEGMDDDAEDRMSYLTAMGADYLSCDSRLISDFEDTDGEGGAYTDNELEEPAEEPLVSSITRSSEPVQHEENIRKSSPEPRAQMRRAASRDQLRDASPPPAFKPEPPKARSQNREDSFDYSKSNLPATAGSEIPGGSTKGYPPPIAAKPAFGRPILKPSTPVPMPESEEVGESTEEQEDAPRSVLGRVKIFEKMDHKAKLQRMQELQEAQNARIEIAQKHPDIYAVPIKAPKPDAGLPPHMSSRPPEPQKAPSRLYQDTRGSYGSDPEEEEYRQQLAAHSKRGYYSQPSRYRDTEL
Take B1: in assay [2], the binding entry is given as “no binding”.
